Measured values as given in article PMC2944810.
No constants are given. Whether binding was seen depends on the method and setting. In cells and extracts the contact can be indirect. Binding can be weak; no strength is given. Where a sequence is shown, tags or fusion partners need not be part of it.

What was measured:
Assay in all cases: FRET or BRET; FRET-FLIM in living N. benthamiana leaf epidermal cells after transient co-expression by agro-infiltration; GFP fusion of the movement protein as donor, RFP fusion as acceptor; fluorescence lifetime of the donor measured at tubules or plasmodesmata
[1] = target: T1, PDLP6:RFP (plasmodesmata-located protein 6 fused to RFP) (Arabidopsis thaliana) (UniProt Q9ZU94)
T1 sequence: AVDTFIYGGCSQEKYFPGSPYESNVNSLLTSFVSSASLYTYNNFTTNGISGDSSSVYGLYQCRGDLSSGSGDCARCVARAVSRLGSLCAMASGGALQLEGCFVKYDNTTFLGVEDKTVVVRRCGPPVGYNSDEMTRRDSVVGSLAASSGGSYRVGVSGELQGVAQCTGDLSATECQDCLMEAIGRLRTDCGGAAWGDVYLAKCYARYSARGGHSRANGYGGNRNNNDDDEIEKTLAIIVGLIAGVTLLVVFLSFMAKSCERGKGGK

[2] = target: T2, PDLP1:RFP (plasmodesmata-located protein 1 fused to RFP) (Arabidopsis thaliana) (UniProt Q8GXV7)
T2 sequence: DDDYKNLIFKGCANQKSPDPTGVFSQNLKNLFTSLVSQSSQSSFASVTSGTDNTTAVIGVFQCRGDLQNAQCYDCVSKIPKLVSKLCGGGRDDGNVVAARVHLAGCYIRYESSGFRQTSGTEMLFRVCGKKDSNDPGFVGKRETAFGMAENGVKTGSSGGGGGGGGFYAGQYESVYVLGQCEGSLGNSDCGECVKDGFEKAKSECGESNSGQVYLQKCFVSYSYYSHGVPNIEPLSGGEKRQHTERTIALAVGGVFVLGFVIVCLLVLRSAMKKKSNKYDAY

[3] = target: T3, PDLP7:RFP (plasmodesmata-located protein 7 fused to RFP) (Arabidopsis thaliana) (UniProt Q0WPN8)
T3 sequence: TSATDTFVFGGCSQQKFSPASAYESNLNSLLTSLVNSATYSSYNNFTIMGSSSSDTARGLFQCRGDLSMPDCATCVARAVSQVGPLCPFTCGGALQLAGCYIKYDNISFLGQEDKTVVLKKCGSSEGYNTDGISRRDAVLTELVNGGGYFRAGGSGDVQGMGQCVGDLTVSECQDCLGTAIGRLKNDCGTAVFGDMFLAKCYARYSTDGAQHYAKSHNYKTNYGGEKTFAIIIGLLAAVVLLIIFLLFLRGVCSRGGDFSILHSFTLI

[4] = target: T4, PDLP4:RFP (plasmodesmata-located protein 4 fused to RFP) (Arabidopsis thaliana) (UniProt Q6E263)
T4 sequence: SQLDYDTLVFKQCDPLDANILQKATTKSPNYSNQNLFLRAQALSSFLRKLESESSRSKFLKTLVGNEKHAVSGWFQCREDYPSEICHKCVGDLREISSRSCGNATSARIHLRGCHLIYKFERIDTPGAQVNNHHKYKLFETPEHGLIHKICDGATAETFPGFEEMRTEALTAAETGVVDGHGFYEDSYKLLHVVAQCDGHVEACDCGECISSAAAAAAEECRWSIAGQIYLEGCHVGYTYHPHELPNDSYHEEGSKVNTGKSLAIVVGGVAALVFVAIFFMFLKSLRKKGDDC

[5] = target: T5, PDLP5:RFP (plasmodesmata-located protein 5 fused to RFP) (Arabidopsis thaliana) (UniProt Q8GUJ2)
T5 sequence: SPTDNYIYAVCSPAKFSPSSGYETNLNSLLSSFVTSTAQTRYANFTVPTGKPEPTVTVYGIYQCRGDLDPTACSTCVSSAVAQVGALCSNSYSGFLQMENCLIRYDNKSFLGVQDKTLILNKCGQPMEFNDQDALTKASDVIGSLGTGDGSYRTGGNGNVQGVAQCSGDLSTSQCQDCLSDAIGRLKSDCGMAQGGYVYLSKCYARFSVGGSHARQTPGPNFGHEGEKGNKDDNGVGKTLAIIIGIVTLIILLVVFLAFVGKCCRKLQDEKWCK

[6] = target: T6, PDLP3:RFP (plasmodesmata-located protein 3 fused to RFP) (Arabidopsis thaliana) (UniProt O22784)
T6 sequence: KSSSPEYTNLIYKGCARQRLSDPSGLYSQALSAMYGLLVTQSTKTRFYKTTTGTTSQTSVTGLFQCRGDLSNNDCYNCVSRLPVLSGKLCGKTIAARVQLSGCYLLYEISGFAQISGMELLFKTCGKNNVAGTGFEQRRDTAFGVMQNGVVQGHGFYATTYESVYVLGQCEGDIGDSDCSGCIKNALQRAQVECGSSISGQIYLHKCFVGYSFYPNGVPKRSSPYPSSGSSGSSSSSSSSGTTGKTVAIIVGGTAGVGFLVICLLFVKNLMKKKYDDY

[7] = target: T7, PDLP8:RFP (plasmodesmata-located protein 8 fused to RFP) (Arabidopsis thaliana) (UniProt Q6NKQ9)
T7 sequence: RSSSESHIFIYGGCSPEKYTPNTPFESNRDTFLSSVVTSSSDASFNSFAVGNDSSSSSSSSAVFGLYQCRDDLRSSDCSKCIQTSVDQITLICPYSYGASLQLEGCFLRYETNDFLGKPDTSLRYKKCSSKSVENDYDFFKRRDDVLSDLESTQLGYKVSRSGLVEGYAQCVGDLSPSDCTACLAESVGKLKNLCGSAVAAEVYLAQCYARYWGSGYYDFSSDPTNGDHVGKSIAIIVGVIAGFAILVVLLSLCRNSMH

[8] = target: T8, PDLP2:RFP (plasmodesmata-located protein 2 fused to RFP) (Arabidopsis thaliana) (UniProt Q6NM73)
T8 sequence: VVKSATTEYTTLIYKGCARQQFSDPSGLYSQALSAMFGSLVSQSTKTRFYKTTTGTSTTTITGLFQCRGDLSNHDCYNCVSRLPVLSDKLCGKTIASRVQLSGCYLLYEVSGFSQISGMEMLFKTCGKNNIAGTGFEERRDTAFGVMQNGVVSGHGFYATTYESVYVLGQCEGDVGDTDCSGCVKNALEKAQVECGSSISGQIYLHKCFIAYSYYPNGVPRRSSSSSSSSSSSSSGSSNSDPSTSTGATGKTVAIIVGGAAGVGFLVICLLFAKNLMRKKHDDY

Measured: binding

GFP:2B (Grapevine fanleaf virus movement protein 2B fused to EGFP)
binds: all assays above
